The nature of the data set: peptide synthesis. The settings on record: coupling step.

[ ]: non-standard residue; d: D form. The star is where a group is joined. ClZ = O=C(OCc1ccccc1Cl)*; Cbz = O=C(OCc1ccccc1)*; OBn = c1ccc(CO*)cc1; Sar = CNCC(=O)O

In turn, Cbz-AGGD(OBn)[Sar]K(ClZ)-OBn gave a step yield of 35%. The “final HPLC purity” value (HPLC) was 96.25%.
